The other results are listed elsewhere or left out.
Columns and labels:
Assay in all cases: log2 fold change, soluble protein after heating vs DMSO (PISA); higher = thermal stabilisation; K562 lysate, 10 uM; active = over 0.2 and 3.5 SD of the protein, either way, in both replicates (recomputed)
alvocidib = compound: CN1CC[C@H](c2c(O)cc(O)c3c(=O)cc(-c4ccccc4Cl)oc23)[C@H](O)C1 [alvocidib]
How it was run: (§1)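 Values give the log-two fold change in thermal stability against solvent controls, from duplicates. Crude K562 extract at 1 mg/mL protein, made by dounce homogenisation in PBS pH 7.4 with 1 mM MgCl2, was treated with 10 μM compound for 30 min. After 3 min heating across 48°C-58°C, aliquots were pooled, adjusted to 0.5% NP-40 at 4°C and centrifuged at 21,000xg for 90 min. The supernatant was measured by TMTpro 16plex LC-MS/MS with channel sums equalised.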

By UniProt entry, the sequences of proteins in these tests, tags left out. Where a name states a change or a piece, a line headed by the entry shows the natural chain unless it says otherwise.
UniProt Q15286: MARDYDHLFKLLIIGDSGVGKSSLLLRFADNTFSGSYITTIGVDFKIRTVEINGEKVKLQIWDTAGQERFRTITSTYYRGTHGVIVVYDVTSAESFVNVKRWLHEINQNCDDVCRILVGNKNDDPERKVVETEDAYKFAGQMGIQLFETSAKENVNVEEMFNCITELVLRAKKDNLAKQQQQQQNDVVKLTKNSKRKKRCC
UniProt P61106, whole entry, looked up: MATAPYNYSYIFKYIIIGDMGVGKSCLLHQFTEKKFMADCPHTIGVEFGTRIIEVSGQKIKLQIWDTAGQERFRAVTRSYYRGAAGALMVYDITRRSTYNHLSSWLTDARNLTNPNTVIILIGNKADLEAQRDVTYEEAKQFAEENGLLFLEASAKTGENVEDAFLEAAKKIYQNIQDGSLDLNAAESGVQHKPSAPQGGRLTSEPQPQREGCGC
UniProt Q8WUD1: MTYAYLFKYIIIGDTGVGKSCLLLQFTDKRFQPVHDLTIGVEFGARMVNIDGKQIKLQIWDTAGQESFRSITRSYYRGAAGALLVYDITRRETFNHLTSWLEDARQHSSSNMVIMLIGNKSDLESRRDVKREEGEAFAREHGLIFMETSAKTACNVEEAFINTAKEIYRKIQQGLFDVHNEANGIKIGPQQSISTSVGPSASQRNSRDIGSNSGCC
UniProt Q6IQ22: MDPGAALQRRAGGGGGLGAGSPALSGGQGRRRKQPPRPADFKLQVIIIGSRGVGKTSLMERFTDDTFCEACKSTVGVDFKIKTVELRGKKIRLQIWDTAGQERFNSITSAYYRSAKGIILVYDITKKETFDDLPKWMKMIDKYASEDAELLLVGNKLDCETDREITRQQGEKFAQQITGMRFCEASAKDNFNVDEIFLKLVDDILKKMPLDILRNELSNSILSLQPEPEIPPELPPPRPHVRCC
UniProt Q15276: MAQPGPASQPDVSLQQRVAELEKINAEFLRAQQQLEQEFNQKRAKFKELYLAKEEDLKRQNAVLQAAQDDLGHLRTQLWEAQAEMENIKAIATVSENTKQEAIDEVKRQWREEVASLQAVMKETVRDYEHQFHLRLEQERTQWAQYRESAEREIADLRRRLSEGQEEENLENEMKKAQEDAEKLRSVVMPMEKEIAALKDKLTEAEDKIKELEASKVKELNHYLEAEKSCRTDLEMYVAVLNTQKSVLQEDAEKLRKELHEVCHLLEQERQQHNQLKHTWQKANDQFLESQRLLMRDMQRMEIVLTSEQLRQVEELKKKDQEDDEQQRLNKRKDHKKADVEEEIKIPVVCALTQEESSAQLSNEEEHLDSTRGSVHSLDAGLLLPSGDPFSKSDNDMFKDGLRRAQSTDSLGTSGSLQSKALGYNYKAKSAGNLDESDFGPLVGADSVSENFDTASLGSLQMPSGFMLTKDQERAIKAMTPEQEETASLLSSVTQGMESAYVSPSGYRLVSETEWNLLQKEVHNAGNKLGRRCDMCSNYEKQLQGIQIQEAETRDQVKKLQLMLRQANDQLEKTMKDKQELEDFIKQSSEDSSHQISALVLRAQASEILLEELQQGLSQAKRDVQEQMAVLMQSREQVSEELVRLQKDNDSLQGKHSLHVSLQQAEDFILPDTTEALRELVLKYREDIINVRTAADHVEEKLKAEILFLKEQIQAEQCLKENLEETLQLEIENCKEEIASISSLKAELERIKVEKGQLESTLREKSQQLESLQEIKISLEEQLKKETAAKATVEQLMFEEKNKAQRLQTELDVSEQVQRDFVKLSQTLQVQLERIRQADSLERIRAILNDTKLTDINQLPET
UniProt P62491: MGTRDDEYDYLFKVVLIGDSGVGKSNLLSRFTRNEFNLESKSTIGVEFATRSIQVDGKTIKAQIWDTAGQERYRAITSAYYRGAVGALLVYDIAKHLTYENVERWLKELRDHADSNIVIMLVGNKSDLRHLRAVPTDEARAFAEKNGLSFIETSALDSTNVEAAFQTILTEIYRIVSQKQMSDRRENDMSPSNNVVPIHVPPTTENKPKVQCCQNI
UniProt O43502: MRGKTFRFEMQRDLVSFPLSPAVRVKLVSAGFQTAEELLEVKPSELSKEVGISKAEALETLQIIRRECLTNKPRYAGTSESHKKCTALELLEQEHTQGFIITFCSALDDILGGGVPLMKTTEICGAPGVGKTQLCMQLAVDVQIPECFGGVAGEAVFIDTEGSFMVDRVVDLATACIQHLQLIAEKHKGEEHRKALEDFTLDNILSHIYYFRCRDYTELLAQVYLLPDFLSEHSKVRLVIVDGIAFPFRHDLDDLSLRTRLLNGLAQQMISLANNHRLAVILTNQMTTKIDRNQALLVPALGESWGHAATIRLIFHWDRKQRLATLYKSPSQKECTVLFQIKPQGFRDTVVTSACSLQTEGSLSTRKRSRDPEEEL
UniProt P20338: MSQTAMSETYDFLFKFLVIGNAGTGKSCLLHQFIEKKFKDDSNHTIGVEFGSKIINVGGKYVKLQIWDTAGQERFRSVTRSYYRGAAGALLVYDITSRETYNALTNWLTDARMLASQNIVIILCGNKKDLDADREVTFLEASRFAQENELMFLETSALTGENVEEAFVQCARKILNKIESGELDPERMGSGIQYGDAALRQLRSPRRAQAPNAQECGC
UniProt Q9ULZ3, whole entry, looked up: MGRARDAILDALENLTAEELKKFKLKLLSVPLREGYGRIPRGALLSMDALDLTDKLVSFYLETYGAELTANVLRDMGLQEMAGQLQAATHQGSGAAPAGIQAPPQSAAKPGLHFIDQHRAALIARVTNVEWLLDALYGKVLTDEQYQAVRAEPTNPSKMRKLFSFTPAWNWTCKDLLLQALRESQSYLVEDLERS
UniProt O60518: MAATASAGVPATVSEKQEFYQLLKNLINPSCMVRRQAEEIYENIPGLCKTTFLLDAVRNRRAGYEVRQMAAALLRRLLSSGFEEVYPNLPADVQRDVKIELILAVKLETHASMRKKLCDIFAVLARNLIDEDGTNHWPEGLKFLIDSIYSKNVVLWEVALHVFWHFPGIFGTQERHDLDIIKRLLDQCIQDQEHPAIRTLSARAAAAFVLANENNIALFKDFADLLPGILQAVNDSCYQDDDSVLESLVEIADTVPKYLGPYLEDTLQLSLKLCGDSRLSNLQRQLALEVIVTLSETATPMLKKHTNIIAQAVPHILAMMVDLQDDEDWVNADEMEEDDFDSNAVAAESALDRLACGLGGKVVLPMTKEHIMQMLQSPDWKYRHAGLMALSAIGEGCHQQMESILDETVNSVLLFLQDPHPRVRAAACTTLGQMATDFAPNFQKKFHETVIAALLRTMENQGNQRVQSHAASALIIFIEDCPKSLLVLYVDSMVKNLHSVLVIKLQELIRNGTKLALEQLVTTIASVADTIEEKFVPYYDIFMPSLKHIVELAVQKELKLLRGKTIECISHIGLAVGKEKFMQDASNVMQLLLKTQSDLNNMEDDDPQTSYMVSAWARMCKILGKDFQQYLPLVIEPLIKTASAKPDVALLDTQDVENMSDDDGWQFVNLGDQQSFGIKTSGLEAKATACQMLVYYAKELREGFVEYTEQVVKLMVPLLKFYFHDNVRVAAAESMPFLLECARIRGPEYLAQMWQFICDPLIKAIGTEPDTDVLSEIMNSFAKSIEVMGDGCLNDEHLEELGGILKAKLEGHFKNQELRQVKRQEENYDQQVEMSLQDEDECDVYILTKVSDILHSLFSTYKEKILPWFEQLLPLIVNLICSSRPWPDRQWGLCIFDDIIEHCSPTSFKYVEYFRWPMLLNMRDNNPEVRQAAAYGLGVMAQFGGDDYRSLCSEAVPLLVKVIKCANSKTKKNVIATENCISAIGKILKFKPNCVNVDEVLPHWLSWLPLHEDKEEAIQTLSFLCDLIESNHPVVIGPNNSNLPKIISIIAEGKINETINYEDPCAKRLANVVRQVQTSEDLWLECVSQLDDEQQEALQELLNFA
UniProt P49023, whole entry, looked up: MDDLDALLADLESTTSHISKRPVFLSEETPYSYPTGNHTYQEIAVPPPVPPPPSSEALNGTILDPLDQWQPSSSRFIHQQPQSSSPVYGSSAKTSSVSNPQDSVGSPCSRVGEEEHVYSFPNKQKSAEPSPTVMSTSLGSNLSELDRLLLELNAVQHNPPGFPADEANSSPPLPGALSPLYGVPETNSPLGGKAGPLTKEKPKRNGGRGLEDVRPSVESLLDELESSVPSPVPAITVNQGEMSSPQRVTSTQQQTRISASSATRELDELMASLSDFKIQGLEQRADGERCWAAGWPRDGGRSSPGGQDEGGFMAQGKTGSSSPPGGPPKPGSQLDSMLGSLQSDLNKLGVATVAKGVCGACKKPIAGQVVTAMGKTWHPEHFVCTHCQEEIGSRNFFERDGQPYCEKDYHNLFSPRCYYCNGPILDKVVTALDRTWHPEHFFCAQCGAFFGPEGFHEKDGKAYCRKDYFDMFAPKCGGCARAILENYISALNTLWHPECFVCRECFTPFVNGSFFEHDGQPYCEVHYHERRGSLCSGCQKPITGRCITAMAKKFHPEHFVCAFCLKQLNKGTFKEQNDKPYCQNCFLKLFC
UniProt Q96D70: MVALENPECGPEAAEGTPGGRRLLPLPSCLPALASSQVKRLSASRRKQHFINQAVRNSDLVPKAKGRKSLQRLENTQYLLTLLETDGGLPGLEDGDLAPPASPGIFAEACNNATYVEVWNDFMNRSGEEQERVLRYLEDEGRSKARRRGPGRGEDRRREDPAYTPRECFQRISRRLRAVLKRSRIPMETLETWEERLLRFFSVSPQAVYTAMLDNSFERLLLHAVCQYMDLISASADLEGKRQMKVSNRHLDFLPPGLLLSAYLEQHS
UniProt P61224: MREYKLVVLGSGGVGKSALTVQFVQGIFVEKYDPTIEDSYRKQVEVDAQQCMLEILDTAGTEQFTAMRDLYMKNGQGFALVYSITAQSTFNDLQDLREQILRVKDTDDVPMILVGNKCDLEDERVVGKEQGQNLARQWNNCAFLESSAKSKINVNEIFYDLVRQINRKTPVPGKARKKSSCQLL
UniProt P32322: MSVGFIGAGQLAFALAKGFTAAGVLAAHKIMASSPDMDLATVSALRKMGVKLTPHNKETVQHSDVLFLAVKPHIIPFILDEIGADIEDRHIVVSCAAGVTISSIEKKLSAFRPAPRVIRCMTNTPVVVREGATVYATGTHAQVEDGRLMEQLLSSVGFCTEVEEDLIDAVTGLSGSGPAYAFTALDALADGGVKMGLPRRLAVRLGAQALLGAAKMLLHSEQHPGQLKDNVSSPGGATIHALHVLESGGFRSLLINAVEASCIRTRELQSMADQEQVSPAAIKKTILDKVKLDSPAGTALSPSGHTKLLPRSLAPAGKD
UniProt P10114: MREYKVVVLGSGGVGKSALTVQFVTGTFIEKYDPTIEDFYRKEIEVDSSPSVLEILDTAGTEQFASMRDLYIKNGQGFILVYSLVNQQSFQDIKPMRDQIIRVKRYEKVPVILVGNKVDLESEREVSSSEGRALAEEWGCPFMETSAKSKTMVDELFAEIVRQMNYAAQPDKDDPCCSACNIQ
UniProt Q86YS6: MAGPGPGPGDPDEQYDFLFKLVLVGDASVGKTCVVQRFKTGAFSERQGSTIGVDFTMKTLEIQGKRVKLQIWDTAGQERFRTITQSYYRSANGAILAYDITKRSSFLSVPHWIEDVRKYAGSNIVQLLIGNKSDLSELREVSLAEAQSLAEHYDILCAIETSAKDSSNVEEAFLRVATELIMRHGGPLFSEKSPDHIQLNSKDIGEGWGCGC
UniProt Q96I23: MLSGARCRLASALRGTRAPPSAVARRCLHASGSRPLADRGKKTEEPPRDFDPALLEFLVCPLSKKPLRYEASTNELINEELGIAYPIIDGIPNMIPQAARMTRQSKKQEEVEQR

Tubastatin A = compound: CN1CCc2c(c3ccccc3n2Cc2ccc(C(=O)NO)cc2)C1 [Tubastatin A]
How it was run: as §1

[1] = compound: CNC(=O)C1=CC=CC=C1NC2=NC(=NC=C2Cl)NC3=C(C=C(C=C3)N4CCOCC4)OC
How it was run: as §1

defactinib = compound: CNC(=O)c1ccc(Nc2ncc(C(F)(F)F)c(NCc3nccnc3N(C)S(C)(=O)=O)n2)cc1 [defactinib]
How it was run: as §1

[2] = compound: CNc1nc(-c2ccc3c(N)n[nH]c3c2)cc(N2C[C@@H](C(=O)NC3CCCCC3)CC[C@H]2C)n1
How it was run: as §1

encorafenib = compound: COC(=O)N[C@@H](C)CNc1nccc(-c2cn(C(C)C)nc2-c2cc(Cl)cc(NS(C)(=O)=O)c2F)n1 [encorafenib]
How it was run: as §1

[3] = compound: COC(=O)[C@H](CCSC)NC(=O)C1=C(C=C(C=C1)NC[C@H](CS)N)C2=CC=CC=C2
How it was run: as §1

alisertib = compound: COc1cc(Nc2ncc3c(n2)-c2ccc(Cl)cc2C(c2c(F)cccc2OC)=NC3)ccc1C(=O)O [alisertib]
How it was run: as §1

[4] = compound: COc1cc2nc(-c3cc(F)ccc3O)nc(N[C@@H]3CNC[C@H]3C(C)(C)O)c2cc1OC
How it was run: as §1

gefitinib = compound: COc1cc2ncnc(Nc3ccc(F)c(Cl)c3)c2cc1OCCCN1CCOCC1 [gefitinib]
How it was run: as §1

Measured: log2 fold change

RAB35 (UniProt Q15286)
inactive: alvocidib -0.03 | Tubastatin A 0.088 | [1] -0.003 | defactinib 0.014 | [2] 0.025 | encorafenib 0.022 | [3] -0.056 | alisertib 0.024 | [4] 0.103 | gefitinib 0.031

RAB5A (UniProt P20339)
inactive: alvocidib 0.004 | Tubastatin A 0.016 | [1] -0.015 | defactinib -0.021 | [2] 0.071 | encorafenib 0.074 | [3] -0.1 | alisertib -0.024 | [4] 0.055 | gefitinib -0.008

RAB14 (UniProt P61106)
inactive: alvocidib -0.032 | Tubastatin A 0.071 | [1] -0.013 | defactinib 0.001 | [2] 0.046 | encorafenib 0.015 | [3] -0.124 | alisertib -0.018 | [4] 0.048 | gefitinib -0.017

RAB2B (UniProt Q8WUD1)
inactive: alvocidib -0.011 | Tubastatin A 0.038 | [1] 0.03 | defactinib -0.012 | [2] 0.031 | encorafenib 0.024 | [3] -0.044 | alisertib -0.008 | [4] 0.043 | gefitinib 0.009

RAD18 (UniProt Q9NS91)
inactive: alvocidib -0.017 | Tubastatin A 0.008 | [1] 0.038 | defactinib 0.019 | [2] 0.009 | encorafenib 0.044 | [3] -0.073 | alisertib 0.028 | [4] 0.019 | gefitinib -0.014

RAB12 (UniProt Q6IQ22)
inactive: alvocidib -0.014 | Tubastatin A 0.045 | [1] 0.014 | defactinib 0.015 | [2] -0.027 | encorafenib -0.004 | [3] -0.017 | alisertib -0.003 | [4] 0.024 | gefitinib 0.076

RABEP1 (UniProt Q15276)
inactive: alvocidib -0.015 | Tubastatin A 0.036 | [1] -0.048 | defactinib -0.018 | [2] 0.047 | encorafenib 0.005 | [3] -0.031 | alisertib -0.012 | [4] 0.013 | gefitinib 0.02

RAPGEF1 isoform 3 (UniProt Q13905)
inactive: alvocidib -0.049 | Tubastatin A 0.075 | [1] 0.107 | defactinib -0.057 | [2] 0.059 | encorafenib 0.082 | [3] 0.161 | alisertib -0.025 | [4] 0.039 | gefitinib 0

RAB11A (UniProt P62491)
inactive: alvocidib 0.084 | Tubastatin A 0.045 | [1] 0.009 | defactinib 0.024 | [2] 0.085 | encorafenib -0.014 | [3] 0.018 | alisertib -0.03 | [4] 0.004 | gefitinib -0.052

RAD51C (UniProt O43502)
inactive: alvocidib 0.061 | Tubastatin A -0.081 | [1] 0.002 | defactinib 0.035 | [2] 0.072 | encorafenib -0.058 | [3] 0.004 | alisertib -0.005 | [4] 0.047 | gefitinib -0.016

RAB4A (UniProt P20338)
inactive: alvocidib 0.017 | Tubastatin A 0.005 | [1] 0.02 | defactinib -0.012 | [2] -0.018 | encorafenib 0.028 | [3] -0.054 | alisertib -0.027 | [4] 0.011 | gefitinib 0.035

PYCARD (UniProt Q9ULZ3)
inactive: alvocidib -0.019 | Tubastatin A 0.076 | [1] 0.021 | defactinib 0 | [2] 0.063 | encorafenib -0.034 | [3] -0.073 | alisertib -0.022 | [4] 0.013 | gefitinib 0.023

RANBP6 (UniProt O60518)
inactive: alvocidib -0.033 | Tubastatin A -0.07 | [1] 0.008 | defactinib 0.047 | [2] 0.014 | encorafenib -0.027 | [3] 0.057 | alisertib 0.063 | [4] 0.046 | gefitinib 0.008

RAD51AP1 (UniProt Q96B01)
inactive: alvocidib -0.035 | Tubastatin A -0.001 | [1] -0.009 | [2] 0 | encorafenib -0.044 | [3] -0.093 | alisertib -0.062 | [4] -0.015 | gefitinib 0.023

RAB29 (UniProt O14966)
inactive: alvocidib -0.104 | Tubastatin A -0.172 | [1] 0.096 | [2] 0.081

PYM1 (UniProt Q9BRP8)
inactive: alvocidib -0.05 | Tubastatin A 0.094 | [1] 0.017 | defactinib 0.004 | [2] 0.1 | encorafenib 0.04 | [3] -0.071 | alisertib -0.007 | [4] 0.005 | gefitinib -0.042

PXN isoform 3 (UniProt P49023)
inactive: alvocidib 0.003 | Tubastatin A -0.013 | [1] 0.045 | defactinib -0.001 | [2] 0.025 | encorafenib -0.013 | [3] -0.098 | alisertib -0.004 | [4] -0.027 | gefitinib -0.024

R3HDM4 (UniProt Q96D70)
inactive: alvocidib -0.042 | Tubastatin A -0.016 | [1] -0.069 | defactinib -0.06 | [2] -0.092 | encorafenib 0.11 | [3] -0.126 | alisertib -0.006 | gefitinib 0.056

RAP1B (UniProt P61224)
inactive: alvocidib 0.039 | Tubastatin A 0.05 | [1] 0.005 | defactinib 0.02 | [2] 0.025 | encorafenib 0.011 | [3] -0.034 | alisertib 0.015 | [4] 0.057 | gefitinib -0.054

R3HDM1 isoform 3 (UniProt Q15032)
inactive: alvocidib -0.034 | Tubastatin A 0.004 | [1] 0.002 | defactinib 0.023 | [2] 0.065 | encorafenib 0.065 | [3] 0.04 | [4] 0.029

RAD50 isoform 2 (UniProt Q92878)
inactive: alvocidib 0.023 | Tubastatin A -0.137 | [1] 0.008 | defactinib 0.026 | [2] -0.04 | encorafenib 0.006 | [3] 0.108 | alisertib 0.002 | [4] 0.001 | gefitinib -0.016

PYCR1 isoform 3 (UniProt P32322)
inactive: alvocidib 0.021 | Tubastatin A 0.029 | [1] 0 | [2] 0.015 | encorafenib -0.033 | [3] -0.06 | alisertib -0.001 | [4] 0.01 | gefitinib -0.073

RAB3IL1 (UniProt E9PK89)
inactive: alvocidib -0.008 | Tubastatin A -0.025 | [1] 0.023 | defactinib 0.123 | [2] 0.005 | encorafenib 0.047 | [3] 0.024 | alisertib 0.032 | [4] -0.07 | gefitinib 0

RAP2A (UniProt P10114)
inactive: alvocidib 0.003 | Tubastatin A 0.066 | [1] 0.015 | defactinib 0.12 | [2] 0.051 | encorafenib 0.008 | [3] -0.054 | alisertib 0.003 | [4] 0.026 | gefitinib 0

PYGO2 (UniProt Q9BRQ0)
inactive: alvocidib 0.01 | Tubastatin A -0.019 | [1] 0.032 | [2] 0.131 | encorafenib -0.031 | [3] -0.121 | alisertib -0.011 | gefitinib -0.026

2 entries drawn at random from those above:
RAD50 isoform 2 (UniProt Q92878)
inactive: alvocidib 0.023 | Tubastatin A -0.137 | [1] 0.008 | defactinib 0.026 | [2] -0.04 | encorafenib 0.006 | [3] 0.108 | alisertib 0.002 | [4] 0.001 | gefitinib -0.016

RAP2A (UniProt P10114)
inactive: alvocidib 0.003 | Tubastatin A 0.066 | [1] 0.015 | defactinib 0.12 | [2] 0.051 | encorafenib 0.008 | [3] -0.054 | alisertib 0.003 | [4] 0.026 | gefitinib 0

The list continues.

NA (UniProt Q4G0T1)
inactive: alvocidib -0.132 | Tubastatin A -0.272 | [1] -0.115 | [2] -0.062

RANBP17 (UniProt Q9H2T7)
inactive: alvocidib -0.076 | Tubastatin A 0.035 | [1] 0.011 | defactinib -0.026 | [2] 0.03 | encorafenib -0.037 | [3] -0.078 | alisertib -0.048 | [4] 0.005 | gefitinib -0.146

QRICH1 (UniProt Q2TAL8)
inactive: alvocidib 0.022 | Tubastatin A -0.103 | [1] -0.008 | defactinib 0.058 | [2] -0.024 | encorafenib 0.038 | [3] 0.096 | alisertib 0.019 | [4] -0.033 | gefitinib 0.005

RABGAP1L isoform 3 (UniProt Q5R372)
inactive: alvocidib -0.028 | Tubastatin A -0.048 | [1] 0.005 | defactinib -0.018 | [2] 0.052 | encorafenib 0.037 | [3] 0.002 | alisertib -0.026 | [4] 0.026 | gefitinib 0.005

RAD51B (UniProt O15315)
inactive: alvocidib 0.127 | Tubastatin A 0.05 | [1] -0.03 | defactinib -0.064 | [2] -0.052 | encorafenib -0.096 | [3] 0.079 | alisertib -0.035 | gefitinib -0.071

RAB43 (UniProt Q86YS6)
inactive: alvocidib -0.029 | Tubastatin A -0.068 | [1] 0.038 | [2] 0.101 | encorafenib 0.058 | [3] -0.141 | alisertib -0.152 | gefitinib -0.028

PYURF (UniProt Q96I23)
inactive: alvocidib 0.077 | Tubastatin A 0.041 | [1] 0.073 | defactinib 0.181 | [2] 0.019 | encorafenib 0.113 | [3] 0.027 | alisertib 0.007 | [4] -0.007 | gefitinib -0.038
